The list is a part of this screen's results and no random one: its compounds were picked by chemical class. Other doses and runs of a compound may be missing. T/C: endpoint of the treated group in % of that of the vehicle group. Some doses have a count of surviving animals in place of a T/C: the source files T/C as zero there, which appears to mark a toxic dose or a test without result, not a measured value. Counts of survivors are from the toxicity check (mostly the fifth day) where no day follows; animals may have died later. Schedules are NCI's codes, read here as Q, the interval in days (D) or hours (H), X, the number of doses. Some metal complexes and salts are drawn in pieces, as in the source, so charges may not balance. Some survivor counts are full or nearly so, which does not show that the dose was tolerated: the source hardly ever lists a survival T/C far under the control, and the zero likely stands for such cases as well. For survival time, the PubChem record calls one and a half times the control and up active, and a quarter to a half above the control has no call in these data; cut-offs in other NCI protocols can differ. Some entries show no survivor count and are marked so; the dose need not have been tolerated. Some T/C values carry the count of animals alive at the toxicity check (mostly the fifth day); where neither a count nor a note follows, no animal had died by that day. Marks such as (2×) count equal records among those shown. Some entries were tested several times; the results are listed from low to high.
Test system: CD2F1 mice, L1210 leukemia ip, survival T/C
Assay: NCI In Vivo Anticancer Drug Screen. Data for tumor model L1210 Leukemia (intraperitoneal) in CD2F1 (CDF1) mice
Details: T/C endpoint: mean survival time, higher T/C = longer survival
How it was run: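 Implant tumor; dose compound or vehicle; measure endpoint in both groups; report treated divided by control.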

[1] = dose: 50.0 mg/kg/injection, schedule: Q04DX003 (ip), vehicle: distilled water + Tween-80
[2] = dose: 200.0 mg/kg/injection, schedule: Q04DX003 (ip), vehicle: distilled water + Tween-80

**Q.** What does the source list for `ClCCN(CCCl)[PH+]1NCCCO1.ClCCN(CCCl)[PH+]1NCCCO1.[Cl][Pt][Cl]` (centres undefined)?
**A.** T/C (dose: 3.13 mg/kg/injection, schedule: Q04DX003 (ip), vehicle: distilled water + Tween-80): 92 % of control (2×); T/C (dose: 6.25 mg/kg/injection, schedule: Q04DX003 (ip), vehicle: distilled water + Tween-80): 97 and 98 % of control; T/C (dose: 12.5 mg/kg/injection, schedule: Q04DX003 (ip), vehicle: distilled water + Tween-80): 92 and 93 % of control; T/C (dose: 25.0 mg/kg/injection, schedule: Q04DX003 (ip), vehicle: distilled water + Tween-80): 88 and 92 % of control; T/C [1]: 88 % of control; survivor count [1]: 6 of 6; T/C (dose: 100.0 mg/kg/injection, schedule: Q04DX003 (ip), vehicle: distilled water + Tween-80): 87 % of control (2×); T/C [2]: 90 % of control; survivor count [2]: 6 of 6

**Q.** How did the T/C (dose: 50.0 mg/kg/injection, schedule: Q01DX009 (ip), vehicle: saline with Tween-80) turn out when `C1CCC(C2=NCCS2)CC1.O=[N+]([O-])c1cc([N+](=O)[O-])c(O)c([N+](=O)[O-])c1` was run?
**A.** 104 % of control [survivor count not shown]

**Q.** And the T/C (dose: 100.0 mg/kg/injection, schedule: Q01DX009 (ip), vehicle: saline with Tween-80)?
**A.** 104 % of control [survivor count not shown]

**Q.** How did the T/C (dose: 15.62 mg/kg/injection, schedule: Q01DX001 (ip), vehicle: DMSO) turn out when `CC(=O)NCC1CCOP(=O)(N(CCCl)CCCl)O1` (centres undefined) was run?
**A.** 103 % of control

**Q.** What about the T/C (dose: 31.25 mg/kg/injection, schedule: Q01DX001 (ip), vehicle: DMSO) of the same compound?
**A.** 101 % of control

**Q.** What about the T/C (dose: 62.5 mg/kg/injection, schedule: Q01DX001 (ip), vehicle: DMSO) of the same compound?
**A.** 104 % of control

**Q.** What about the T/C (dose: 125.0 mg/kg/injection, schedule: Q01DX001 (ip), vehicle: DMSO) of the same compound?
**A.** 114 % of control

**Q.** And the T/C (dose: 250.0 mg/kg/injection, schedule: Q01DX001 (ip), vehicle: DMSO)?
**A.** 110 % of control

**Q.** And the T/C (dose: 500.0 mg/kg/injection, schedule: Q01DX001 (ip), vehicle: DMSO)?
**A.** 135 % of control

**Q.** Which results are given for `O=P1(N(CCCl)CCCl)NCc2ccccc2O1` (centres undefined)?
**A.** T/C (dose: 25.0 mg/kg/injection, schedule: Q01DX009 (ip), vehicle: other): 87 % of control; T/C (dose: 31.8 mg/kg/injection, schedule: Q01DX001 (ip), vehicle: other): 100 % of control; T/C (dose: 50.0 mg/kg/injection, schedule: Q01DX009 (ip), vehicle: other): 92 % of control; T/C (dose: 62.5 mg/kg/injection, schedule: Q01DX001 (ip), vehicle: other): 92 % of control; T/C (dose: 100.0 mg/kg/injection, schedule: Q01DX009 (ip), vehicle: other): 86 % of control; T/C (dose: 125.0 mg/kg/injection, schedule: Q01DX001 (ip), vehicle: other): 98 % of control [5 of 6 alive]; survivor count (dose: 200.0 mg/kg/injection, schedule: Q01DX009 (ip), vehicle: other): 2 of 6; survivor count (dose: 250.0 mg/kg/injection, schedule: Q01DX001 (ip), vehicle: other): 3 of 6; survivor count (dose: 500.0 mg/kg/injection, schedule: Q01DX001 (ip), vehicle: other): 0 of 6

**Q.** What does the source list for `CCC(CC)NC(C)CO.O=[N+]([O-])c1cc([N+](=O)[O-])c(O)c([N+](=O)[O-])c1`?
**A.** T/C (dose: 75.0 mg/kg/injection, schedule: Q01DX001 (ip), vehicle: other): 97 % of control [survivor count not shown]; T/C (dose: 150.0 mg/kg/injection, schedule: Q01DX001 (ip), vehicle: other): 95 % of control [survivor count not shown]; T/C (dose: 300.0 mg/kg/injection, schedule: Q01DX001 (ip), vehicle: other): 103 % of control [survivor count not shown]

**Q.** What does the source list for `CN(C)c1ncnc2c1NP(=O)(c1ccccc1)N2` (centres undefined)?
**A.** T/C (dose: 12.5 mg/kg/injection, schedule: Q01DX005 (ip), vehicle: water): 96 % of control; T/C (dose: 25.0 mg/kg/injection, schedule: Q01DX005 (ip), vehicle: water): 96 % of control; T/C (dose: 50.0 mg/kg/injection, schedule: Q01DX005 (ip), vehicle: water): 94 % of control; T/C (dose: 100.0 mg/kg/injection, schedule: Q01DX005 (ip), vehicle: water): 97 % of control; T/C (dose: 200.0 mg/kg/injection, schedule: Q01DX005 (ip), vehicle: water): 100 % of control
